The supplement of paper PMC10849652
The list shows a part of the results.

By UniProt entry, the sequences of proteins in these tests, tags left out. Where a name states a change or a piece, a line headed by the entry shows the natural chain unless it says otherwise.
UniProt Q9NWT6: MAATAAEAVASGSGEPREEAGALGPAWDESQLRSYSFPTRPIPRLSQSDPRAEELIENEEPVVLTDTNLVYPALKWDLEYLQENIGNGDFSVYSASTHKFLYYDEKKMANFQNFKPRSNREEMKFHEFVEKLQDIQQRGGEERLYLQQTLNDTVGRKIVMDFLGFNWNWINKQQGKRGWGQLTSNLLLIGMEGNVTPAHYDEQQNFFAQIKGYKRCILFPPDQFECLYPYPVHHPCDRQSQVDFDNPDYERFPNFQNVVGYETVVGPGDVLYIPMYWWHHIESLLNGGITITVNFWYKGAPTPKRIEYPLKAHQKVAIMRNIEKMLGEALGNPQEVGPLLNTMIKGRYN
UniProt Q9NQE9: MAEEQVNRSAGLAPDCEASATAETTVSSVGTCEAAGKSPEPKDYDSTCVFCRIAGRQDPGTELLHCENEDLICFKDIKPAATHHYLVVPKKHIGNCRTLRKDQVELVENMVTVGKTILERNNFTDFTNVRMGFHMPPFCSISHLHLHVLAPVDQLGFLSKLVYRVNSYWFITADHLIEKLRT
UniProt O75506: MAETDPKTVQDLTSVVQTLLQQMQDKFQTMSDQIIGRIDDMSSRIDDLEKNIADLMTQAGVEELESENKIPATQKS
UniProt Q00613: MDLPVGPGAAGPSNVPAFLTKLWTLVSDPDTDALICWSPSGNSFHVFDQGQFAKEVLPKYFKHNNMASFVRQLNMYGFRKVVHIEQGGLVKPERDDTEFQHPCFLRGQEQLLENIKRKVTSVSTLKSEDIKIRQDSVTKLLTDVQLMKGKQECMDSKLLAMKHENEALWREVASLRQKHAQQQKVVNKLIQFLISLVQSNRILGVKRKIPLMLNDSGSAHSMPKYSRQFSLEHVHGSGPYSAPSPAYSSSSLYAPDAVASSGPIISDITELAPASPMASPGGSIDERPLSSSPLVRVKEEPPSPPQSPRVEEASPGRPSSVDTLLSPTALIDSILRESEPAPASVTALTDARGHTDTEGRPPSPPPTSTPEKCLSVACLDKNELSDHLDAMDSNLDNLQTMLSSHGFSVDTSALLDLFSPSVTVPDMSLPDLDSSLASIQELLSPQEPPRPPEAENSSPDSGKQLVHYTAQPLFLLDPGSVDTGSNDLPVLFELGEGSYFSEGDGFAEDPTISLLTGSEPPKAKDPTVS
UniProt P07910: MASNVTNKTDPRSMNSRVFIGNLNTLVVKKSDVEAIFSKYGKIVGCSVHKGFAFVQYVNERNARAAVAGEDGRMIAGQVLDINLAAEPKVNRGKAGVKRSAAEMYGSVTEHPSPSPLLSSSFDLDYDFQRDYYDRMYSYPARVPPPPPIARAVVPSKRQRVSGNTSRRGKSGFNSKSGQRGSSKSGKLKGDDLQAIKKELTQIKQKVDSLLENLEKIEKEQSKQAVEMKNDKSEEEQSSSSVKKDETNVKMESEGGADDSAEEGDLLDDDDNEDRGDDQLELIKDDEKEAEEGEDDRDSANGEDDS
UniProt P09429: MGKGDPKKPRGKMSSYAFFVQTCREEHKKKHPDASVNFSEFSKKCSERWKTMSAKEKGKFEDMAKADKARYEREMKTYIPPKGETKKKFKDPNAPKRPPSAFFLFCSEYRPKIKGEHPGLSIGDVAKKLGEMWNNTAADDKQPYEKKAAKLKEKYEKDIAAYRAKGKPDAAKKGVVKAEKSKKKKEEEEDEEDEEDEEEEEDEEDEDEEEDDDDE
UniProt Q5T447: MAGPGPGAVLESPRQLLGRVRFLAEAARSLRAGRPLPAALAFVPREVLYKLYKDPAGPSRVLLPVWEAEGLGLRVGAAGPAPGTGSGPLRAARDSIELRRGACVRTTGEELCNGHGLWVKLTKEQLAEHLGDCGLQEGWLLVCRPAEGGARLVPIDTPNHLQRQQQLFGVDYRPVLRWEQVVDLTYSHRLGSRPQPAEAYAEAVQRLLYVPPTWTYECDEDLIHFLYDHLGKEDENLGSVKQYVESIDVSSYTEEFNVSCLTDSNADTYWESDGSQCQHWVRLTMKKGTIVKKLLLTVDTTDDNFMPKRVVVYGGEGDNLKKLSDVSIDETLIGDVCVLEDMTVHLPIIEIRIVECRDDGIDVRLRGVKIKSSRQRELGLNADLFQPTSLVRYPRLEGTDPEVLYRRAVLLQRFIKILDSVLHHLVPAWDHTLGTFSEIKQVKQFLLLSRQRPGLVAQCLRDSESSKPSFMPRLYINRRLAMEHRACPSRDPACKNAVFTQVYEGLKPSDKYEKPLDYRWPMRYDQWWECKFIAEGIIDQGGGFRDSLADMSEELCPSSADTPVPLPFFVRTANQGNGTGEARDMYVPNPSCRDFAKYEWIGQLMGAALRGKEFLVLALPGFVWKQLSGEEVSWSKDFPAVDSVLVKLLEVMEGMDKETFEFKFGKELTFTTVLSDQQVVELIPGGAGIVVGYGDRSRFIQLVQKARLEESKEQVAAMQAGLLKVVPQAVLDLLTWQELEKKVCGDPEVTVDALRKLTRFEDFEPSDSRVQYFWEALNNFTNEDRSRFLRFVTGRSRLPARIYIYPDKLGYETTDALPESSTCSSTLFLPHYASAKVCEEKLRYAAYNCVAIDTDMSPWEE
UniProt P22626: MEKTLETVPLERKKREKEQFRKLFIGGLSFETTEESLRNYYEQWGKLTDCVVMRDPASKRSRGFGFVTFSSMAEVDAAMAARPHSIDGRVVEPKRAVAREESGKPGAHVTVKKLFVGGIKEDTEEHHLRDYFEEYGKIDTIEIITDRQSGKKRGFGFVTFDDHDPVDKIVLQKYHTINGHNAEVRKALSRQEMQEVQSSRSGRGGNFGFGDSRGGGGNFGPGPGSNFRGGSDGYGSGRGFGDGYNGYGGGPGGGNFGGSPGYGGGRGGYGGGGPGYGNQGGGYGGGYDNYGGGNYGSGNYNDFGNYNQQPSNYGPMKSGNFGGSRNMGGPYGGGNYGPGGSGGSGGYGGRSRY
UniProt Q5GLZ8: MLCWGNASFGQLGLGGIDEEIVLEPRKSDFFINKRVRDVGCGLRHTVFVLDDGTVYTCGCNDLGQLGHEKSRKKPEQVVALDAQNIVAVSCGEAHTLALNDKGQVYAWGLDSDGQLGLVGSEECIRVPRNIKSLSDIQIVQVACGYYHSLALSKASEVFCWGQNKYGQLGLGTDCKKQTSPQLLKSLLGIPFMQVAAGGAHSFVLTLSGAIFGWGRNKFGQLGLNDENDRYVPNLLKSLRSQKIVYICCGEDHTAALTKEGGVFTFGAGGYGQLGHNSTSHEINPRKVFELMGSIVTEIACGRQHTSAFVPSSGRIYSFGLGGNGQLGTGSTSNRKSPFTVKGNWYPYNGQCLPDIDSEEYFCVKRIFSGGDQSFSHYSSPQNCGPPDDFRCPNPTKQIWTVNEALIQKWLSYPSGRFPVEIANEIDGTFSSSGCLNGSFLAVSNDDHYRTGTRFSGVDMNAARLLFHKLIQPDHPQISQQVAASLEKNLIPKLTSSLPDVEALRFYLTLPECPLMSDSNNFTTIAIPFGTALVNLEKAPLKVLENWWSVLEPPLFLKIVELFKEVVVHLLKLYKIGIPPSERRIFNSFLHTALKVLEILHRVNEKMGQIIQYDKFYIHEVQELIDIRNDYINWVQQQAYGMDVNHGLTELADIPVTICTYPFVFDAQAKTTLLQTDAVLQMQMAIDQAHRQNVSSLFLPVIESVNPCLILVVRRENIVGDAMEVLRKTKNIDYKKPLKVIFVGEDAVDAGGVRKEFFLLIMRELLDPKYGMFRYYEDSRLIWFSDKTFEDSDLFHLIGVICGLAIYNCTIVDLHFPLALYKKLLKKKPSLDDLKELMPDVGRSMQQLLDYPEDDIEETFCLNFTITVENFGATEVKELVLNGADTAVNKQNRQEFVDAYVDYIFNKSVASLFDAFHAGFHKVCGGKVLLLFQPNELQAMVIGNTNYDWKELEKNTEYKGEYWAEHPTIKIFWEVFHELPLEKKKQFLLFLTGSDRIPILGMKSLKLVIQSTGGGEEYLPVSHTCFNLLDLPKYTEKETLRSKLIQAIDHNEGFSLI
UniProt P31937: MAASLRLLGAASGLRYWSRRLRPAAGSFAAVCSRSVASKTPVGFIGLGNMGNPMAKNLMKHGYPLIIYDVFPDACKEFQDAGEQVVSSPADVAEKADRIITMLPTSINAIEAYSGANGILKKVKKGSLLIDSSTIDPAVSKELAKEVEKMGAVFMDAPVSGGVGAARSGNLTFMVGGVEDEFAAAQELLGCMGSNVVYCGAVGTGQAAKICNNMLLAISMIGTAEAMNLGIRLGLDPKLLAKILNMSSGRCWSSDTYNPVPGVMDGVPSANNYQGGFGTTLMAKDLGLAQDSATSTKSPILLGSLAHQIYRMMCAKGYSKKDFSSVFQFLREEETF
UniProt P30519: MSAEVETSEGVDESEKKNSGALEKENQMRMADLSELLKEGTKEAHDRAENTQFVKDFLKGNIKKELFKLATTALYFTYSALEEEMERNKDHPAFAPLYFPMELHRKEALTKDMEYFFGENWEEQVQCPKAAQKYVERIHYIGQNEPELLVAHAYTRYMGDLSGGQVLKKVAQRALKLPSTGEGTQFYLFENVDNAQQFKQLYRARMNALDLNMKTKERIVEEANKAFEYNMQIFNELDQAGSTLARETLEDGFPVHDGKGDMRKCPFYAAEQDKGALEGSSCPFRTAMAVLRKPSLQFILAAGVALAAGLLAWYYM
UniProt Q00839, whole entry, looked up: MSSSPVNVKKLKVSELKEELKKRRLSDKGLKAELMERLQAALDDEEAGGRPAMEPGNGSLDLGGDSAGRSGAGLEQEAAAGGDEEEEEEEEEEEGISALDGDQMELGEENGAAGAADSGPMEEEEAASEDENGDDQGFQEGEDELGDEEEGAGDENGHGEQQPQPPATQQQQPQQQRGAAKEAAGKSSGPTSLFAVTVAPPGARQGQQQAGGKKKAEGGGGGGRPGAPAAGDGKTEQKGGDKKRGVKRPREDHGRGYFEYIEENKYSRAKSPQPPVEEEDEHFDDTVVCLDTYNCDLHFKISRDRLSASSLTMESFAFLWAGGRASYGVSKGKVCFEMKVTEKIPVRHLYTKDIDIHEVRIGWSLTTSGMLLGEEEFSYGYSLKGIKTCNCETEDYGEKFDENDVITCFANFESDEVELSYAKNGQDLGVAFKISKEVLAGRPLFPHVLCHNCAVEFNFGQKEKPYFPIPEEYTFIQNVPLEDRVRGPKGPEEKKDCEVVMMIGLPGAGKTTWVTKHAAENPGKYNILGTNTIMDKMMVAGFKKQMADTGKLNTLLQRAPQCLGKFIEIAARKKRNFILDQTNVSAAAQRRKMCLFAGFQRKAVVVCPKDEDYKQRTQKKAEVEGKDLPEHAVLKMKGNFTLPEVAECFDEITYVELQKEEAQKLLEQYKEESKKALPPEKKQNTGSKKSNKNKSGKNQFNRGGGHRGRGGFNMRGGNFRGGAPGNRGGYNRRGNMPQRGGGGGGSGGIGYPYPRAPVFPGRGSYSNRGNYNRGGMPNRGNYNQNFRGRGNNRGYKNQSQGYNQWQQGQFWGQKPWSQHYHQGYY
UniProt P52272: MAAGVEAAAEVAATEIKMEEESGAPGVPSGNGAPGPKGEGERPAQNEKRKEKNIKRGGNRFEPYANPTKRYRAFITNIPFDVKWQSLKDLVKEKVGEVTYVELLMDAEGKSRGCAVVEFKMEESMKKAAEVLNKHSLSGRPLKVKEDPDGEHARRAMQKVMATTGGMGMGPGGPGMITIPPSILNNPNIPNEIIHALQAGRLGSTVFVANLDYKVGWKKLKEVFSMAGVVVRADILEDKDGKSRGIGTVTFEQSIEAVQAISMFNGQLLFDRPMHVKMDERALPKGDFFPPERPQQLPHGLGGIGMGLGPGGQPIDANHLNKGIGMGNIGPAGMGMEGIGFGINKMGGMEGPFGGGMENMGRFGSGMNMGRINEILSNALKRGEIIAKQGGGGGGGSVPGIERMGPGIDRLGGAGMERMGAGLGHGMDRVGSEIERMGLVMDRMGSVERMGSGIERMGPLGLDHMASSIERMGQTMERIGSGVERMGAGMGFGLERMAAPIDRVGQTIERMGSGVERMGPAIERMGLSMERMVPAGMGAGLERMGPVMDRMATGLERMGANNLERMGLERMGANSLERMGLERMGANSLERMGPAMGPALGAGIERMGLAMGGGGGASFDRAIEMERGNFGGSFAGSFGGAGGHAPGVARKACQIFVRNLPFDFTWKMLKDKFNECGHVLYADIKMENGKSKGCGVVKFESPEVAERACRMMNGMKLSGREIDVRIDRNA
UniProt Q13151: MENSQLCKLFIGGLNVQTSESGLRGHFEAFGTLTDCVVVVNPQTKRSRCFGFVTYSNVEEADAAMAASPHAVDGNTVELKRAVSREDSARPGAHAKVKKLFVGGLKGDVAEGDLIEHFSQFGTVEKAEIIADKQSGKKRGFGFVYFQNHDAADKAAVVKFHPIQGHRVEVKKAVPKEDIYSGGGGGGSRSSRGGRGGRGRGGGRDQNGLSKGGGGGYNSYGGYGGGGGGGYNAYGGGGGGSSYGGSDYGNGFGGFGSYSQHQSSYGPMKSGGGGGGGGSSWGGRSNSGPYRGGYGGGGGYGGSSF

Experiments:
Assay in all cases: log2 fold change, soluble protein after heating vs DMSO (PISA); higher = thermal stabilisation; K562 lysate, 10 uM; active = over 0.2 and 3.5 SD of the protein, either way, in both replicates (recomputed)
[1] = compound: CN1CC[C@H](c2c(O)cc(O)c3c(=O)cc(-c4ccccc4Cl)oc23)[C@H](O)C1 [alvocidib]
Summary of the method: (§1)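 Pellets of K562 cells were dounce-homogenised in PBS pH 7.4 with 1 mM MgCl2, and the crude extract was held at 1 mg/mL protein for a 30 min treatment with 10 μM compound. Aliquots were heated for 3 min over 48°C-58°C and pooled before NP-40 was added to 0.5% at 4°C. The supernatant from 21,000xg for 90 min was quantified by TMTpro 16plex LC-MS/MS with channel sums equalised. Values are reported from duplicates as log-two fold change in thermal stability relative to solvent controls.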

[2] = compound: CN1CCc2c(c3ccccc3n2Cc2ccc(C(=O)NO)cc2)C1 [Tubastatin A]
Summary of the method: as §1

[3] = compound: CNC(=O)C1=CC=CC=C1NC2=NC(=NC=C2Cl)NC3=C(C=C(C=C3)N4CCOCC4)OC
Summary of the method: as §1

[4] = compound: CNC(=O)c1ccc(Nc2ncc(C(F)(F)F)c(NCc3nccnc3N(C)S(C)(=O)=O)n2)cc1 [defactinib]
Summary of the method: as §1

[5] = compound: CNc1nc(-c2ccc3c(N)n[nH]c3c2)cc(N2C[C@@H](C(=O)NC3CCCCC3)CC[C@H]2C)n1
Summary of the method: as §1

[6] = compound: COC(=O)N[C@@H](C)CNc1nccc(-c2cn(C(C)C)nc2-c2cc(Cl)cc(NS(C)(=O)=O)c2F)n1 [encorafenib]
Summary of the method: as §1

[7] = compound: COC(=O)[C@H](CCSC)NC(=O)C1=C(C=C(C=C1)NC[C@H](CS)N)C2=CC=CC=C2
Summary of the method: as §1

[8] = compound: COc1cc(Nc2ncc3c(n2)-c2ccc(Cl)cc2C(c2c(F)cccc2OC)=NC3)ccc1C(=O)O [alisertib]
Summary of the method: as §1

[9] = compound: COc1cc2nc(-c3cc(F)ccc3O)nc(N[C@@H]3CNC[C@H]3C(C)(C)O)c2cc1OC
Summary of the method: as §1

[10] = compound: COc1cc2ncnc(Nc3ccc(F)c(Cl)c3)c2cc1OCCCN1CCOCC1 [gefitinib]
Summary of the method: as §1

Measured: log2 fold change

HIF1AN (UniProt Q9NWT6)
inactive: [1] -0.003 | [2] 0.088 | [3] -0.055 | [4] 0.094 | [5] 0.071 | [6] 0.013 | [7] 0.066 | [8] -0.132 | [9] -0.012 | [10] 0.09

HGF (UniProt P14210)
inactive: [1] -0.06 | [2] 0.162 | [3] 0.039

HINT3 (UniProt Q9NQE9)
inactive: [1] 0.023 | [2] 0.025 | [3] 0.023 | [4] 0.021 | [5] 0.092 | [6] 0.023 | [7] -0.011 | [8] -0.015 | [9] -0.036 | [10] -0.03

HNRNPDL (UniProt O14979)
inactive: [1] 0.01 | [2] -0.017 | [3] 0.018 | [4] -0.006 | [5] -0.002 | [6] -0.028 | [7] -0.017 | [8] 0.04 | [9] -0.005 | [10] -0.029

HSBP1 (UniProt O75506)
inactive: [1] -0.056 | [2] -0.111 | [3] -0.209 | [4] 0.079 | [5] 0.02 | [6] -0.004 | [7] -0.141

HSP90AA4P (UniProt Q58FG1)
inactive: [1] -0.228 | [2] 0.052 | [3] -0.081 | [4] -0.213 | [5] -0.046 | [6] -0.022 | [7] 0.123 | [8] -0.012 | [9] 0.068 | [10] 0.042

HNRNPD isoform 2 (UniProt Q14103)
inactive: [1] 0.142 | [2] 0.108 | [3] 0.001 | [4] -0.043 | [5] 0.065 | [6] -0.032 | [7] -0.008 | [8] 0.018 | [9] -0.008 | [10] 0

HSPA13 (UniProt P48723)
inactive: [1] 0.027 | [2] -0.059 | [3] 0.019 | [4] -0.028 | [5] -0.015 | [6] 0.01 | [7] -0.018 | [8] 0.032 | [9] 0.008 | [10] 0.002

HSF1 (UniProt Q00613)
inactive: [1] 0.033 | [2] -0.025 | [3] 0.044 | [4] 0.008 | [5] -0.023 | [6] 0.022 | [7] -0.023 | [8] 0.004 | [9] -0.001 | [10] 0.03

HNRNPC (UniProt P07910)
inactive: [1] -0.029 | [2] 0.005 | [3] -0.042 | [4] -0.01 | [5] 0.064 | [6] -0.025 | [7] 0.025 | [8] 0.006 | [9] -0.007 | [10] 0.004

HMGB1 (UniProt P09429)
inactive: [1] 0.126 | [2] 0.059 | [3] 0.01 | [4] 0.074 | [5] 0.046 | [6] -0.006 | [7] -0.09 | [8] -0.043 | [9] -0.025 | [10] -0.131

HNRNPR isoform 2 (UniProt O43390)
inactive: [1] 0.011 | [2] -0.057 | [3] 0.012 | [4] -0.013 | [5] -0.012 | [6] -0.025 | [7] 0.03 | [8] 0.006 | [9] -0.013 | [10] -0.039

HECTD3 (UniProt Q5T447)
inactive: [1] 0.007 | [2] -0.047 | [3] 0.02 | [4] 0.045 | [5] -0.023 | [6] 0.02 | [7] 0.11 | [8] -0.015 | [9] 0.002 | [10] 0.014

HERC2 (UniProt O95714)
active: [2] -0.316
inactive: [1] -0.075 | [3] -0.109 | [4] -0.085 | [5] -0.077 | [6] 0.027 | [7] 0.111 | [8] -0.007 | [9] 0.005 | [10] 0.004

HNRNPA3 (UniProt P51991)
inactive: [1] 0.065 | [2] -0.11 | [3] -0.019 | [4] -0.006 | [5] -0.051 | [6] 0.006 | [7] -0.041 | [8] 0.006 | [9] -0.024 | [10] -0.017

HNRNPA2B1 (UniProt P22626)
inactive: [1] -0.022 | [2] -0.004 | [3] -0.026 | [4] -0.016 | [5] -0.011 | [6] 0.002 | [7] -0.027 | [8] 0.016 | [9] -0.002 | [10] -0.01

HMGN4 (UniProt O00479)
inactive: [1] 0.581 | [2] -0.001 | [3] 0.01 | [4] 0.122 | [5] 0.235 | [6] -0.072 | [7] -0.046 | [8] -0.074 | [9] -0.036 | [10] 0.111

HELQ (UniProt Q8TDG4)
inactive: [1] 0.059 | [2] -0.016 | [3] 0.045 | [4] 0.037 | [5] 0.054 | [6] 0.046 | [7] 0.09 | [8] 0.132 | [9] -0.041 | [10] -0.177

HERC4 (UniProt Q5GLZ8)
inactive: [1] -0.025 | [2] 0.014 | [3] 0.017 | [4] 0.007 | [5] -0.004 | [6] -0.012 | [7] 0.05 | [8] -0.008 | [9] -0.001 | [10] 0.016

HS2ST1 (UniProt Q7LGA3)
inactive: [1] -0.022 | [2] 0.063 | [3] 0.063 | [4] 0.06 | [5] 0.014 | [6] 0.044 | [7] 0.007 | [8] 0.095 | [9] -0.07 | [10] 0.035

HIBADH (UniProt P31937)
inactive: [1] 0.041 | [2] 0.019 | [3] -0.001 | [4] 0.02 | [5] 0.016 | [6] -0.019 | [7] -0.045 | [8] 0.007 | [9] -0.014 | [10] -0.041

HSD17B10 (UniProt Q99714)
inactive: [1] -0.02 | [2] -0.077 | [3] 0.004 | [4] -0.029 | [5] 0.05 | [6] -0.035 | [7] 0.141 | [8] 0.013 | [9] -0.009 | [10] -0.021

2 entries drawn at random from the list so far, as already listed:
HIBADH (UniProt P31937)
inactive: [1] 0.041 | [2] 0.019 | [3] -0.001 | [4] 0.02 | [5] 0.016 | [6] -0.019 | [7] -0.045 | [8] 0.007 | [9] -0.014 | [10] -0.041

HNRNPDL (UniProt O14979)
inactive: [1] 0.01 | [2] -0.017 | [3] 0.018 | [4] -0.006 | [5] -0.002 | [6] -0.028 | [7] -0.017 | [8] 0.04 | [9] -0.005 | [10] -0.029

Later entries:

HPCAL1 (UniProt P37235)
inactive: [1] -0.06 | [2] 0.016 | [3] 0.008 | [4] 0.079 | [5] -0.118 | [6] 0.013 | [7] -0.193 | [8] -0.006 | [9] 0.012 | [10] 0.018

HMOX2 (UniProt P30519)
inactive: [1] -0.024 | [2] -0.065 | [3] -0.032 | [4] -0.029 | [5] 0.006 | [6] 0.016 | [7] -0.063 | [8] 0.001 | [9] 0.004 | [10] -0.022

HNRNPU (UniProt Q00839)
inactive: [1] 0.028 | [2] -0.093 | [3] -0.006 | [4] 0.011 | [5] 0.004 | [6] 0.023 | [7] 0.012 | [8] -0.008 | [9] -0.011 | [10] -0.003

HNRNPM (UniProt P52272)
inactive: [1] -0.01 | [2] -0.096 | [3] 0.022 | [4] 0.045 | [5] -0.067 | [6] 0.166 | [7] -0.035 | [8] 0.069 | [9] 0.037 | [10] 0.012

HSPA4L (UniProt O95757)
inactive: [1] -0.012 | [2] -0.018 | [3] -0.002 | [4] -0.028 | [5] -0.012 | [6] -0.005 | [7] 0.12 | [8] 0.005 | [9] -0.022 | [10] 0.014

HNRNPA1 (UniProt H0YH80)
inactive: [1] 0.079 | [2] -0.041 | [3] -0.003 | [4] -0.045 | [5] -0.135 | [6] 0.041 | [7] -0.028 | [8] 0.035 | [9] -0.022 | [10] 0.007

HK1 isoform 2 (UniProt P19367)
inactive: [1] -0.001 | [2] -0.038 | [3] -0.009 | [4] 0.001 | [5] -0.011 | [6] 0.003 | [7] 0.004 | [8] 0.017 | [9] -0.007 | [10] -0.011

HNRNPA0 (UniProt Q13151)
inactive: [1] -0.031 | [2] -0.1 | [3] 0.094 | [4] -0.009 | [5] 0.023 | [6] 0.065 | [7] 0.022 | [8] 0.005 | [9] -0.018 | [10] -0.077
